# Measurements from the supplement of paper PMC8728848.
# This is one part of the list.
# B1: SJCP1084 (Schistosoma japonicum) (protein)
# chain: MRIINLVIISTALLLINLLQTKSQANGEDTKNGTPDDPGLTKSTELKVEVQALLKDKKTNMRVKWNENLLDNTKPEYHNLRDEACELLLQIVRSVVPLSQDDGECKDVTFTKYVVGTKDGAVNVKLTITFKDSVAINQKPMDLKLKLENDFKNLQSESTLKATKPTFTVKVEKRLIPISKPQTTPPTTAKNDASKENVGDIGGEDSTVPTAAPATAASANEEKDEGDKDNKDSQHPNVLTSNVNDRNLIIALVALMILAIGVALTAAVKQR
# Assays:
# Test in all cases: glycan array binding signal (z-score within array); higher = stronger binding
# Settings in all cases: glycan notation: IUPAC condensed, linker removed
# [1] = molecular target: Glc(b1-6)Glc
# Outline: (§1)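 Negative Z-scores can be read as non-binding. The Z-score is calculated within each array and then averaged across arrays of one protein sequence at different concentrations or buffers and across linkers. Arrays, 3228 in all, were curated from the Consortium for Functional Glycomics database and kept only where the protein sequence was available.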
# [2] = molecular target: GlcA(b1-3)Gal
# Outline: as §1
# [3] = molecular target: GlcA(b1-3)GlcNAc
# Outline: as §1
# [4] = molecular target: GlcA(b1-6)Gal
# Outline: as §1
# [5] = molecular target: GlcA3S(b1-3)Gal(b1-4)GlcNAc(b1-2)Man
# Outline: as §1
# [6] = molecular target: GlcA3S(b1-3)Gal(b1-4)GlcNAc(b1-3)Gal(b1-4)Glc
# Outline: as §1
# [7] = molecular target: GlcNAc(a1-3)Gal(b1-4)GlcNAc
# Outline: as §1
# [8] = molecular target: GlcNAc(a1-4)Gal(b1-3)GlcNAc
# Outline: as §1
# [9] = molecular target: GlcNAc(a1-4)Gal(b1-4)GalNAc
# Outline: as §1
# [10] = molecular target: GlcNAc(a1-4)Gal(b1-4)GlcNAc
# Outline: as §1
# [11] = molecular target: GlcNAc(a1-4)Gal(b1-4)GlcNAc(b1-3)Gal(b1-4)Glc
# Outline: as §1
# [12] = molecular target: GlcNAc(a1-4)Gal(b1-4)GlcNAc(b1-3)Gal(b1-4)GlcNAc
# Outline: as §1
# [13] = molecular target: GlcNAc(a1-4)Gal(b1-4)GlcNAc(b1-3)Gal(b1-4)GlcNAc(b1-3)Gal(b1-4)GlcNAc
# Outline: as §1
# [14] = molecular target: GlcNAc(a1-4)Gal(b1-4)GlcNAc(b1-3)Gal(b1-4)[Fuc(a1-3)]GlcNAc(b1-3)Gal(b1-4)[Fuc(a1-3)]GlcNAc
# Outline: as §1
# [15] = molecular target: GlcNAc(a1-6)Gal(b1-4)GlcNAc
# Outline: as §1
# [16] = molecular target: GlcNAc(b1-2)Gal(b1-3)GalNAc
# Outline: as §1
# [17] = molecular target: GlcNAc(b1-2)Man(a1-3)[GlcNAc(b1-2)Man(a1-6)]Man(b1-4)GlcNAc(b1-4)GlcNAc
# Outline: as §1
# [18] = molecular target: GlcNAc(b1-2)Man(a1-3)[GlcNAc(b1-2)Man(a1-6)]Man(b1-4)GlcNAc(b1-4)[Fuc(a1-6)]GlcNAc
# Outline: as §1
# [19] = molecular target: GlcNAc(b1-2)Man(a1-3)[GlcNAc(b1-4)][GlcNAc(b1-2)Man(a1-6)]Man(b1-4)GlcNAc(b1-4)GlcNAc
# Outline: as §1
# [20] = molecular target: GlcNAc(b1-2)Man(a1-3)[GlcNAc(b1-4)][GlcNAc(b1-2)Man(a1-6)]Man(b1-4)GlcNAc(b1-4)[Fuc(a1-6)]GlcNAc
# Outline: as §1
# [21] = molecular target: GlcNAc(b1-2)[GlcNAc(b1-4)]Man(a1-3)[GlcNAc(b1-2)Man(a1-6)]Man(b1-4)GlcNAc(b1-4)GlcNAc
# Outline: as §1
# [22] = molecular target: GlcNAc(b1-2)[GlcNAc(b1-4)]Man(a1-3)[GlcNAc(b1-4)][GlcNAc(b1-2)Man(a1-6)]Man(b1-4)GlcNAc(b1-4)GlcNAc
# Outline: as §1
# [23] = molecular target: GlcNAc(b1-2)[GlcNAc(b1-4)]Man(a1-3)[GlcNAc(b1-4)][GlcNAc(b1-2)[GlcNAc(b1-6)]Man(a1-6)]Man(b1-4)GlcNAc(b1-4)GlcNAc
# Outline: as §1
# [24] = molecular target: GlcNAc(b1-2)[GlcNAc(b1-4)]Man(a1-3)[GlcNAc(b1-4)][GlcNAc(b1-2)[GlcNAc(b1-6)]Man(a1-6)]Man(b1-4)GlcNAc(b1-4)[Fuc(a1-6)]GlcNAc
# Outline: as §1
# [25] = molecular target: GlcNAc(b1-2)[GlcNAc(b1-6)]Man(a1-6)[GlcNAc(b1-2)Man(a1-3)]Man(b1-4)GlcNAc(b1-4)GlcNAc
# Outline: as §1
# [26] = molecular target: GlcNAc(b1-2)[GlcNAc(b1-6)]Man(a1-6)[GlcNAc(b1-2)Man(a1-3)]Man(b1-4)GlcNAc(b1-4)[Fuc(a1-6)]GlcNAc
# Outline: as §1
# [27] = molecular target: GlcNAc(b1-2)[GlcNAc(b1-6)]Man(a1-6)[GlcNAc(b1-4)][GlcNAc(b1-2)Man(a1-3)]Man(b1-4)GlcNAc(b1-4)GlcNAc
# Outline: as §1
# [28] = molecular target: GlcNAc(b1-3)Fuc
# Outline: as §1
# [29] = molecular target: GlcNAc(b1-3)Gal
# Outline: as §1
# [30] = molecular target: GlcNAc(b1-3)Gal(b1-3)GalNAc
# Outline: as §1
# [31] = molecular target: GlcNAc(b1-3)Gal(b1-4)Glc
# Outline: as §1
# [32] = molecular target: GlcNAc(b1-3)Gal(b1-4)GlcNAc
# Outline: as §1
# [33] = molecular target: GlcNAc(b1-3)Gal(b1-4)GlcNAc(b1-2)Man(a1-3)[GlcNAc(b1-3)Gal(b1-4)GlcNAc(b1-2)Man(a1-6)]Man(b1-4)GlcNAc(b1-4)GlcNAc
# Outline: as §1
# [34] = molecular target: GlcNAc(b1-3)Gal(b1-4)GlcNAc(b1-2)Man(a1-3)[GlcNAc(b1-3)Gal(b1-4)GlcNAc(b1-2)Man(a1-6)]Man(b1-4)GlcNAc(b1-4)[Fuc(a1-6)]GlcNAc
# Outline: as §1
# [35] = molecular target: GlcNAc(b1-3)Gal(b1-4)GlcNAc(b1-2)[GlcNAc(b1-3)Gal(b1-4)GlcNAc(b1-6)]Man(a1-6)[GlcNAc(b1-3)Gal(b1-4)GlcNAc(b1-2)Man(a1-3)]Man(b1-4)GlcNAc(b1-4)GlcNAc
# Outline: as §1
# [36] = molecular target: GlcNAc(b1-3)Gal(b1-4)GlcNAc(b1-3)Gal(b1-4)GlcNAc
# Outline: as §1
# [37] = molecular target: GlcNAc(b1-3)Gal(b1-4)GlcNAc(b1-3)Gal(b1-4)GlcNAc(b1-2)Man(a1-3)[GlcNAc(b1-3)Gal(b1-4)GlcNAc(b1-3)Gal(b1-4)GlcNAc(b1-2)Man(a1-6)]Man(b1-4)GlcNAc(b1-4)GlcNAc
# Outline: as §1
binder,measurement,setting,value
B1,glycan array binding signal (z-score),[1],-0.429
same,glycan array binding signal (z-score),[2],0.134
same,glycan array binding signal (z-score),[3],-0.799
same,glycan array binding signal (z-score),[4],-1.1
same,glycan array binding signal (z-score),[5],-1.16
same,glycan array binding signal (z-score),[6],-2.01
same,glycan array binding signal (z-score),[7],-1.19
same,glycan array binding signal (z-score),[8],-0.746
same,glycan array binding signal (z-score),[9],-1.11
same,glycan array binding signal (z-score),[10],0.089
same,glycan array binding signal (z-score),[11],0.199
same,glycan array binding signal (z-score),[12],-0.366
same,glycan array binding signal (z-score),[13],0.69
same,glycan array binding signal (z-score),[14],2.09
same,glycan array binding signal (z-score),[15],1.35
same,glycan array binding signal (z-score),[16],0.328
same,glycan array binding signal (z-score),[17],-0.46
same,glycan array binding signal (z-score),[18],-0.486
same,glycan array binding signal (z-score),[19],-1.44
same,glycan array binding signal (z-score),[20],-0.448
same,glycan array binding signal (z-score),[21],-0.067
same,glycan array binding signal (z-score),[22],0.9
same,glycan array binding signal (z-score),[23],-1.41
same,glycan array binding signal (z-score),[24],-0.318
same,glycan array binding signal (z-score),[25],0.15
same,glycan array binding signal (z-score),[26],0.755
same,glycan array binding signal (z-score),[27],0.364
same,glycan array binding signal (z-score),[28],-0.021
same,glycan array binding signal (z-score),[29],-1.39
same,glycan array binding signal (z-score),[30],-0.001
same,glycan array binding signal (z-score),[31],-0.447
same,glycan array binding signal (z-score),[32],0.123
same,glycan array binding signal (z-score),[33],-0.62
same,glycan array binding signal (z-score),[34],1.02
same,glycan array binding signal (z-score),[35],-0.639
same,glycan array binding signal (z-score),[36],-0.425
same,glycan array binding signal (z-score),[37],1.03
